# Assay results published in publication PMC12891897, “Blocking TRIM47-mediated HNF4α degradation suppresses hepatocellular carcinoma progression” (Acta Pharmaceutica Sinica. B, 2025).
# By UniProt entry, the sequences of proteins in these tests, tags left out.
# UniProt Q96LD4: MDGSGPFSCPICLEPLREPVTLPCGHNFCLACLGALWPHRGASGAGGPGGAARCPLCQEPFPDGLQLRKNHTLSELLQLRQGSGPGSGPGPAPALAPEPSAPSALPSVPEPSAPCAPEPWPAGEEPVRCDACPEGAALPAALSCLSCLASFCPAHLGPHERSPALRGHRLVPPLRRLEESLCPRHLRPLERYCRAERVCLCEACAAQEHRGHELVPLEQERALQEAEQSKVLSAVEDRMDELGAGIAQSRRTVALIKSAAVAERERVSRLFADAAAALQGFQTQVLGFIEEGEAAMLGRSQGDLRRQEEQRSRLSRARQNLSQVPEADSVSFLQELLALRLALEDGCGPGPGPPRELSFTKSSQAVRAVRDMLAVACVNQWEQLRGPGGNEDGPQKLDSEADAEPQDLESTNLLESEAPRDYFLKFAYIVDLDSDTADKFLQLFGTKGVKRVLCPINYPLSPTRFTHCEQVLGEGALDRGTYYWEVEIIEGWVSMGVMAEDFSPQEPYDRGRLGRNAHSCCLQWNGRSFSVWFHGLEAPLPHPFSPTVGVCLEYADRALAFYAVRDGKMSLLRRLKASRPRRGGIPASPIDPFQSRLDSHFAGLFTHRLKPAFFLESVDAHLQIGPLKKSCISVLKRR
# UniProt P19474: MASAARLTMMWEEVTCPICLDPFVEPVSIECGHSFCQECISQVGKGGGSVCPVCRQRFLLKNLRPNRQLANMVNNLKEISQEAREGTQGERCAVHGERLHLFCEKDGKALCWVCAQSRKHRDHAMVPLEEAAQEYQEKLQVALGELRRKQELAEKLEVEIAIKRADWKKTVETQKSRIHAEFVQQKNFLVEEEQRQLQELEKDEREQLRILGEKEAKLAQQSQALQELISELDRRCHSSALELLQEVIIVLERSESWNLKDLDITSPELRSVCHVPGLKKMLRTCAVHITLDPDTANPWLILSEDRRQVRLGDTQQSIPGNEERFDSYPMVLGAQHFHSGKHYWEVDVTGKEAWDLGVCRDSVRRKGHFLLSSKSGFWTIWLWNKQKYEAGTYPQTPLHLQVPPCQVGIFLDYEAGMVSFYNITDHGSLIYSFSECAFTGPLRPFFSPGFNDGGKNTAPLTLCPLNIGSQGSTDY
# These are yes or no findings as the source states them, for the method shown. In cells and extracts the contact can be indirect. A yes stands for co-enrichment or nearness to the bait. Other partners may have been found.
# B1: PPM1A (protein, UniProt P35813 1-382)
# chain: MGAFLDKPKMEKHNAQGQGNGLRYGLSSMQGWRVEMEDAHTAVIGLPSGLESWSFFAVYDGHAGSQVAKYCCEHLLDHITNNQDFKGSAGAPSVENVKNGIRTGFLEIDEHMRVMSEKKHGADRSGSTAVGVLISPQHTYFINCGDSRGLLCRNRKVHFFTQDHKPSNPLEKERIQNAGGSVMIQRVNGSLAVSRALGDFDYKCVHGKGPTEQLVSPEPEVHDIERSEEDDQFIILACDGIWDVMGNEELCDFVRSRLEVTDDLEKVCNEVVDTCLYKGSRDNMSVILICFPNAPKVSPEAVKKEAELDKYLECRVEEIIKKQGEGVPDLVHVMRTLASENIPSLPPGGELASKRNVIEAVYNRLNPYKNDDTDSTSTDDMW
# B2: HNF4α, endogenous in MHCC-L cells (protein, UniProt P41235-1 1-474)
# chain: MRLSKTLVDMDMADYSAALDPAYTTLEFENVQVLTMGNDTSPSEGTNLNAPNSLGVSALCAICGDRATGKHYGASSCDGCKGFFRRSVRKNHMYSCRFSRQCVVDKDKRNQCRYCRLKKCFRAGMKKEAVQNERDRISTRRSSYEDSSLPSINALLQAEVLSRQITSPVSGINGDIRAKKIASIADVCESMKEQLLVLVEWAKYIPAFCELPLDDQVALLRAHAGEHLLLGATKRSMVFKDVLLLGNDYIVPRHCPELAEMSRVSIRILDELVLPFQELQIDDNEYAYLKAIIFFDPDAKGLSDPGKIKRLRSQVQVSLEDYINDRQYDSRGRFGELLLLLPTLQSITWQMIEQIQFIKLFGMAKIDNLLQEMLLGGSPSDAPHAHHPLHPHLMQEHMGTNVIVANTMPTHLSNGQMCEWPRPRGQAATPETPQPSPPGGSGSEPYKLLPGAVATIVKPLSAIPQPTITKQEVI
# Biological target: Flag-tagged TRIM47 (tripartite motif 47), full length (amino acids 1–638) (human) (UniProt Q96LD4)
# Assay: affinity purification with mass spectrometry; MHCC-L cells transfected with Flag-TRIM47 or Flag-vector, MG132 for 6 h, lysed in IP buffer, anti-Flag beads at 4 °C overnight, washed (20 mmol/L Tris-HCl pH 8.0, 150 mmol/L NaCl, 0.5% NP40, 0.5% Triton X-100, 10% glycerol), trypsin digest, Q Exactive HF-X
row,Molecule,binding
1,TRIM21 (from UniProt P19474 1-475),binds
2,B1,binds
3,B2,binds
